Data source: PubChem BioAssay AID1259424 (University of Nebraska Medical Center, 2018)
The deposit covers about 14,000 reagents; shown is an unselected part. 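Higher correlation or smaller distance means closer resemblance to KSR1 loss; control wells, including KSR1 knockdowns, recur on many plates.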 Some reagents were tested in more than one well and are listed for each. Not all columns of the deposit are shown. Not given: the time to read-out.

Screen: 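Seek colon cancer survival genes behaving like KSR1, using a six-gene signature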 (primary screen)
System: human HCT116 colon cancer cells
Reagent: siRNA pool against human genes, 50 nM
Read-out: 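Log2 levels of six mRNAs (branched-DNA multiplex), adjusted by two reference genes and the non-targeting median, then scored against the average KSR1 knockdown pattern as Pearson r and euclidean distance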
Scale: mean correlation with KSR1 profile and KSR1 correlation: higher = expression change more like KSR1 knockdown; mean distance from KSR1 profile: higher = expression change less like KSR1 knockdown

Target gene	PubChem SID	mean correlation with KSR1 profile	mean distance from KSR1 profile	KSR1 correlation, replicate 1
ORMDL1 (GeneID 94101)	SID364000125	-0.314	2.09	-0.421
CENPO (GeneID 79172)	SID364002795	0.367	2.43	-0.226
PRKAG2 (GeneID 51422)	SID363999946	-0.147	2.41	-0.398
SORD (GeneID 6652)	SID363994246	-0.568	2.8	-0.603
TNRC6B (GeneID 23112)	SID364005113	-0.076	2.72	0.121
HSPB1 (GeneID 3315)	SID363992797	-0.25	1.47	-0.329
ACSM3 (GeneID 6296)	SID363996516	0.38	2.57	0.325
SULF1 (GeneID 23213)	SID363999342	-0.124	1.65	-0.0305
HPCAL1 (GeneID 3241)	SID363993353	0.777	0.779	0.643
CLIC1 (GeneID 1192)	SID363992572	-0.597	3.52	-0.595
SERPINB4 (GeneID 6318)	SID363994125	-0.0521	2.26	-0.104
TCHH (GeneID 7062)	SID363997829	0.789	1.79	0.98
PLA2G10 (GeneID 8399)	SID363994643	-0.121	4.44	-0.19
TMTC4 (GeneID 84899)	SID364004193	-0.132	2.72	-0.225
CLTB (GeneID 1212)	SID363993049	0.058	3.53	0.179
LIMK1 (GeneID 3984)	SID363993511	0.039	1.92	0.17
SMAD1 (GeneID 4086)	SID363996769	-0.358	3.5	-0.318
SMAD1 (GeneID 4086)	SID363996769	-0.0087	3.17	0.0944
OR5F1 (GeneID 338674)	SID364005392	0.548	2.54	0.677
BLNK (GeneID 29760)	SID363998428	0.497	3.08	0.428
NKX3-1 (GeneID 4824)	SID363996996	-0.639	2.65	-0.565
TSSK3 (GeneID 81629)	SID364004400	-0.192	2.31	0.0393
SLCO4A1 (GeneID 28231)	SID364000054	-0.00215	2.68	-0.22
GCN1 (GeneID 10985)	SID364005177	-0.553	2.32	-0.312
KRABD3 (GeneID 84626)	SID364005160	0.587	2.56	0.696
ACOT7 (GeneID 11332)	SID363997963	-0.478	2.59	-0.431
DDX31 (GeneID 64794)	SID364002551	-0.495	2.73	-0.518
TBX6 (GeneID 6911)	SID363995577	-0.0435	1.64	0.0665
RPS17 (GeneID 6218)	SID363992319	0.14	1.63	-0.0452
SPTLC1 (GeneID 10558)	SID363997226	-0.208	3.8	-0.251
FOLR3 (GeneID 2352)	SID363992094	0.501	1.51	0.273
ATP5ME (GeneID 521)	SID363997816	-0.0248	2.24	0.219
IL2 (GeneID 3558)	SID363991904	0.29	1.72	0.263
LAMTOR5 (GeneID 10542)	SID363997213	-0.208	2.31	-0.0452
POLR3K (GeneID 51728)	SID364000026	0.298	2.26	-0.0733
LGALS12 (GeneID 85329)	SID364004318	0.402	1.3	0.47
AKR1C4 (GeneID 1109)	SID363993034	0.15	3.38	-0.083
PSMD14 (GeneID 10213)	SID363996683	-0.00568	1.91	-0.0442
TENT4B (GeneID 64282)	SID364002435	0.734	1.51	0.615
PRDX4 (GeneID 10549)	SID363997217	0.132	1.56	0.243
ALDH7A1 (GeneID 501)	SID363992472	0.0387	7.76	-0.126
DNTT (GeneID 1791)	SID363995098	0.363	2.56	0.481
NLRP1 (GeneID 22861)	SID363999198	-0.692	2.31	-0.658
KBTBD4 (GeneID 55709)	SID364000156	-0.196	3.99	-0.233
PRM2 (GeneID 5620)	SID363993920	-0.55	4.7	-0.699
RGS9 (GeneID 8787)	SID363994896	0.705	1.51	0.765
POLR1A (GeneID 25885)	SID363999485	-0.391	4.35	-0.269
PCDHA8 (GeneID 56140)	SID364001238	0.175	1.44	0.157
DPYSL3 (GeneID 1809)	SID363992658	-0.35	2.19	-0.445
CALML5 (GeneID 51806)	SID364000303	0.309	1.96	0.442
